Consider one compound from patent publication US20070142433A1, “Angiogenesis-affecting compounds and methods of use thereof” (priority 2004, published 2007).

Structures can show the parent of a compound that is named as a salt.

This assay has as its system tumor size and vessel density. Description: Further studies with other CPT-1 inhibitors. Conditions: CPT-1 inhibitors at 10 and 100 μm; FIGS. 37A-40.

In the case of `CCCCc1oc2ccccc2c1C(=O)c1cc(I)c(OCCN(CC)CC)c(I)c1` [Amiodarone Hydrochloride], the “effects on tumor size and vessel density (as seen with Perhexiline)” value is “not seen”.
